PubChem BioAssay AID2685 (National Center for Advancing Translational Sciences (NCATS), 2010)
This is one part of the list. These are further read-outs of the screen, such as a control signal, another cell line or another target. No call is given for them. The list favours compounds with an active or inconclusive main result. Words in brackets tell the shape of the fitted curve; partial curves, single points and poor fits give uncertain potencies.

Test: qHTS Assay for Lipid Storage Modulators in Drosophila S3 Cells;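 on cell number change: cells counted by Cell Tracker Red CMTPX staining in the red channel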
Details: BODIPY lipid droplet fluorescence, 18-24 h; for cell number change: measured here: cell count max response, cells fed with added oleic acid
In short: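 Drosophila S3 cells loaded with oleic acid (400 uM, as added) and compounds at several concentrations; lipid droplets imaged by 488-nm laser-scanning cytometry, 500–530 nm intensity and object ratio to cell channel. Percent activity normalized to 20 uM Triacsin C.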

[1] = measured here: cell number channel AC50, cells fed with added oleic acid
[2] = measured here: lipid fluorescence (Fed channel) AC50, cells fed with added oleic acid

Row | SMILES | cell number change [%] | AC50 [1] | AC50 [2]
1 | COC(=O)Cn1c2ccccc2c2nc(C)sc21 | 11.9 |  | 
2 | NNC(=O)Cn1nc(Cc2ccccc2)n(N)c1=O | -63.2 | 18.4 µM [falling, single point] | 20.6 µM [falling, single point]
3 | COC(=O)Nc1ccc(S(=O)(=O)NCCO)cc1 | -31.2 | 5.8 µM [falling, full curve, poor fit] | 0.103 µM [falling, full curve, poor fit]
4 | Cc1nc2ncnn2c(C)c1CCC(=O)Oc1ccccc1 | -12.6 | 5.8 µM [falling, single point] | 0.13 µM [falling, full curve, poor fit]
5 | COC(=O)C1(CO)NC(c2cccs2)C2C(=O)N(c3ccccc3)C(=O)C21 (stereo not drawn) | 1.09 |  | 
6 | Nc1ncc2c(n1)-c1ccccc1CC2 | -46.8 | 29.1 µM [falling, single point] | 29.1 µM [falling, single point]
7 | CC(C)c1nn2c(=O)cc(CSc3ccccc3NC(=O)c3ccccc3F)nc2s1 |  |  | 6.51 µM [rising, single point]
8 | CC1(C)CC(=O)C(CS(=O)(=O)c2ccccc2)=C(Cl)C1 | -33.5 | 29.1 µM [falling, single point] | 23.1 µM [falling, single point]
9 | CC1CCN(S(=O)(=O)c2c[nH]c(=O)[nH]c2=O)CC1 | -33.5 | 0.461 µM [falling, full curve, poor fit] | 
10 | CC(=O)NS(=O)(=O)c1ccc(NC(=O)c2ccc3c(c2)OCO3)cc1 | 27 |  | 0.58 µM [falling, single point]
11 | COc1ccc(NC(=O)NNC(=O)C(O)(c2ccccc2)c2ccccc2)cc1 | -14.4 |  | 29.1 µM [rising, single point]
12 | CC1CCCC(C)N1CCCNC(=O)c1cc2c(=O)n(C)c3ccccc3c2n1C (stereo not drawn) | 21.7 | 0.82 µM [rising, full curve, poor fit] | 0.58 µM [rising, single point]
13 | COC(=O)C(CCSC)NC(=O)Cn1ncc2c(=O)oc3ccc(C)cc3c21 (stereo not drawn) | 28.5 |  | 
14 | Cc1n[nH]c(=O)nc1NCc1ccco1 | 25.5 |  | 
15 | Cc1[nH]c2ccccc2c1C(=O)COC(=O)C1CCC(=O)N1 (stereo not drawn) | 1.61 |  | 
16 | COc1ccc(/C=C/C(=O)OCCCN(C)C)cc1 | -5.41 |  | 
17 | N#CC(c1ccc(Cl)nn1)c1ccccc1Cl (stereo not drawn) | 2.76 |  | 23.1 µM [rising, single point]
18 | Cc1ccc(OCCCC(=O)NNC(=O)c2ccncc2)cc1 | 16.4 |  | 9.2 µM [rising, single point]
19 | COc1ccc(NC(=O)C(=O)NNC(=O)c2cccs2)c(OC)c1 | 2.82 |  | 6.51 µM [rising, single point]
20 | COc1cccc(C2=N/C(=C\N(C)C)C(=O)O2)c1 | -21 |  | 

At a glance, part of the list above.
Row | SMILES | cell number change [%] | AC50 [1] | AC50 [2]
13 | COC(=O)C(CCSC)NC(=O)Cn1ncc2c(=O)oc3ccc(C)cc3c21 (stereo not drawn) | 28.5 |  | 
14 | Cc1n[nH]c(=O)nc1NCc1ccco1 | 25.5 |  | 
15 | Cc1[nH]c2ccccc2c1C(=O)COC(=O)C1CCC(=O)N1 (stereo not drawn) | 1.61 |  | 

The results go on.

Row | SMILES | cell number change [%] | AC50 [1] | AC50 [2]
21 | NC(=O)c1ccc(C(=O)N/N=C/c2cccc(Oc3ccccc3)c2)cc1 | -0.495 |  | 0.58 µM [rising, single point]
22 | Cc1ccc(Cl)cc1NS(=O)(=O)c1ccc2oc(=O)ccc2c1 | 6.72 |  | 0.13 µM [rising, partial curve, poor fit]
23 | Cc1nnc2ccc(-c3ccc(NS(C)(=O)=O)cc3)nn12 | 0.823 |  | 
24 | Cc1ccccc1C(=O)N1CCC(n2nccc2NC(=O)C2CC2)CC1 | -18.5 | 2.06 µM [falling, partial curve, poor fit] | 
25 | CN(C)S(=O)(=O)c1cc(NC(=O)COC(=O)Cc2ccc(Cl)cc2Cl)ccc1Cl | 10.1 |  | 13 µM [rising, partial curve]
26 | CCn1c(=O)c2ccccc2n(CC(=O)NC2CCCCC2)c1=O | -11.5 |  | 0.326 µM [rising, full curve, poor fit]
27 | CCc1ccccc1NC(=O)CSc1nc2ccccc2nc1N1CCOCC1 | 18.7 |  | 20.6 µM [rising, single point]
28 | O=C(NCCN1C(=O)S/C(=C\c2ccccc2F)C1=O)C1=COCCO1 | 112 | 13 µM [rising, partial curve] | 
29 | C=CCOc1ccccc1CNCc1cccnc1 | 19.9 |  | 29.1 µM [rising, single point]
30 | CN(Cc1ccco1)C(=O)c1ccc(S(=O)(=O)N2CCCCCC2)cc1 | -9.51 |  | 0.103 µM [falling, partial curve, poor fit]
31 | COc1ccc(C2C(C(C)=O)=C(O)C(=O)N2CCN(C)C)cc1OC (stereo not drawn) | -47.9 | 3.26 µM [falling, full curve] | 29.1 µM [falling, partial curve]
32 | O=C(CO/N=C/c1c(Cl)cccc1Cl)NNC(=O)c1cccc(Cl)c1 |  |  | 6.51 µM [rising, partial curve, poor fit]
33 | CNC(=S)SCCOc1ccc(C)cc1 | -31.4 | 29.1 µM [falling, single point] | 29.1 µM [falling, single point]
34 | COC(=O)Cn1c(C)nc2ccccc21 | -19.9 |  | 0.0731 µM [falling, full curve, poor fit]
35 | Cc1ccc(NS(=O)(=O)c2cccc(C(=O)NCCCN3CCCC3=O)c2)cc1 | 29.4 |  | 8.2 µM [rising, partial curve]
36 | Cc1ccccc1NC(=S)N(Cc1cccnc1)Cc1ccco1 | -8.67 | 2.06 µM [rising, partial curve] | 
37 | CN(CC(=O)Nc1ccccc1C(F)(F)F)Cc1c(O)ccc2ccccc12 | -9.52 |  | 29.1 µM [falling, single point]
38 | CCN(C(=O)COC(=O)CNS(=O)(=O)c1ccc2ccccc2c1)C1CCCCC1 | 2.02 |  | 1.3 µM [falling, partial curve, poor fit]
39 | Cc1ccc(NC(=O)CN(C)C(=O)c2n[nH]c(=O)c3ccccc23)cc1 | 63 | 16.4 µM [rising, single point] | 23.1 µM [rising, single point]
40 | O=C(c1ccccn1)N1CCN(S(=O)(=O)c2ccc(F)cc2)CC1 | 40.1 |  | 
